Laboratory results: PMC7900238, “A meet-up of two second messengers: the c-di-AMP receptor DarB controls (p)ppGpp synthesis in Bacillus subtilis” (Nature Communications, 2021)
These are yes or no findings as the source states them, for the method shown. In cells and extracts the contact can be indirect.

Target: T1, DarB-Strep (B. subtilis) (UniProt O31698)
T1 sequence: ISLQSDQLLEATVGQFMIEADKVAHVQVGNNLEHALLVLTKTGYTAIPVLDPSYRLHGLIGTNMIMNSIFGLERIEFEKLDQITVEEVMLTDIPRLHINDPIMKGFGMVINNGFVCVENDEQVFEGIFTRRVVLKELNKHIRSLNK
Assay: pull-down; in vivo: B. subtilis GP3429 (Rel-His6) with pGP767 (DarB-Strep) grown in MSSM medium with 0.1 mM potassium; DarB-Strep purified from crude extract on a StrepTactin column; eluates analysed by Western blot (anti-His, anti-Strep) and mass spectrometry

binding | Substance
no binding | SasA, endogenous (B. subtilis (endogenous in GP3429)) (enzyme)
no binding | SasB, endogenous (B. subtilis (endogenous in GP3429)) (enzyme)
